Patent EP2717057A1, “Morphine-6-glucuronide derivatives, immunogens and immunoassay” (Cisbio Bioassays, priority 2012, dated 2014)

Molecular target: rabbit anti-M6G polyclonal antibody
Assay: Cross-reactivity of the competitive M6G-ELISA (M6G-HRP tracer, biotinylated antibody)
Type: binding

CN1CC[C@]23c4c5ccc(O)c4O[C@H]2[C@@H](O)C=C[C@H]3[C@H]1C5 [morphine, Morphine]
Kd (approximate, calculated from Figure 1, competing compound diluted in NBCS at 1, 10, 100 or 1000 nM, one site competition model, read-out: affinity constant K): 0.97 µM | K relative to M6G (X as high as M6G) (ratio of the compound's K to the K of M6G): more than 160 X
